# Some of the results follow.
# The chains behind the UniProt entries cited, without tags or fusion partners. Where a name states a change or a piece, a line headed by the entry shows the natural chain unless it says otherwise.
# UniProt O96019, whole entry, looked up: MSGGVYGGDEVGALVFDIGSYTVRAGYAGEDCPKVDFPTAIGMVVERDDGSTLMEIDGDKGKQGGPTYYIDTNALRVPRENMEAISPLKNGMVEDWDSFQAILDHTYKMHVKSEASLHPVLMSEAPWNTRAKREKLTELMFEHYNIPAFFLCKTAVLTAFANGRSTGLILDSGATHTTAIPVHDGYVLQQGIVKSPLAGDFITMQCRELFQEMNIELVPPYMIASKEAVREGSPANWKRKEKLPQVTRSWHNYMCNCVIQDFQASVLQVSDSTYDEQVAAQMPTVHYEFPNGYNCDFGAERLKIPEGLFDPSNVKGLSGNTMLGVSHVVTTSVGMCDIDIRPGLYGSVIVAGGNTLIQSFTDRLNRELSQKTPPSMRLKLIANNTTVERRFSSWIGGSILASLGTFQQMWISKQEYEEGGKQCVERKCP
# UniProt Q9BV57: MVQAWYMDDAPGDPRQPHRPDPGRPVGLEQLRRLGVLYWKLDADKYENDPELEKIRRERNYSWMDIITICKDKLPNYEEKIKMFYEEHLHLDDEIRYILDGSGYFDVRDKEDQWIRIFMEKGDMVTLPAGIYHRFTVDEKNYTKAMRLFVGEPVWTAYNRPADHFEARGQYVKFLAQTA
# UniProt Q4G176: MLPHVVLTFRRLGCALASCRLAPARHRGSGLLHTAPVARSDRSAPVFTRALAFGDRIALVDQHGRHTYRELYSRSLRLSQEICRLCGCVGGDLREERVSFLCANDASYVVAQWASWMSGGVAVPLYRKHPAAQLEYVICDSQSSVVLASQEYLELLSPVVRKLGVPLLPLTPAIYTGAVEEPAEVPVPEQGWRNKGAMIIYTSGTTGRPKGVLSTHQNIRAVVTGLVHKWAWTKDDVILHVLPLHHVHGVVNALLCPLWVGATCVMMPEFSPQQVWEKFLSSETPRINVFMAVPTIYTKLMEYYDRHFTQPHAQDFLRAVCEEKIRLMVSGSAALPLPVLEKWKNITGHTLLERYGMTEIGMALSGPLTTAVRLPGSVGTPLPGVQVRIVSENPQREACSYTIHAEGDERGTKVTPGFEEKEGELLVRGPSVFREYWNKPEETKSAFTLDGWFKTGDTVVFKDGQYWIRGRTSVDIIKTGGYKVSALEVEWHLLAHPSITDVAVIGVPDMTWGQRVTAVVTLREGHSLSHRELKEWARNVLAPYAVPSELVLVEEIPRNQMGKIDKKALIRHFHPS
# UniProt Q9BQI0: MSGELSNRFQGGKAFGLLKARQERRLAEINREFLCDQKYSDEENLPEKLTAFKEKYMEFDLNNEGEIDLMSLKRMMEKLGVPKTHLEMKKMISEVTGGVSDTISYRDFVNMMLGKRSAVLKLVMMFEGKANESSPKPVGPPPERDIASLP
# UniProt Q99996, whole entry, looked up: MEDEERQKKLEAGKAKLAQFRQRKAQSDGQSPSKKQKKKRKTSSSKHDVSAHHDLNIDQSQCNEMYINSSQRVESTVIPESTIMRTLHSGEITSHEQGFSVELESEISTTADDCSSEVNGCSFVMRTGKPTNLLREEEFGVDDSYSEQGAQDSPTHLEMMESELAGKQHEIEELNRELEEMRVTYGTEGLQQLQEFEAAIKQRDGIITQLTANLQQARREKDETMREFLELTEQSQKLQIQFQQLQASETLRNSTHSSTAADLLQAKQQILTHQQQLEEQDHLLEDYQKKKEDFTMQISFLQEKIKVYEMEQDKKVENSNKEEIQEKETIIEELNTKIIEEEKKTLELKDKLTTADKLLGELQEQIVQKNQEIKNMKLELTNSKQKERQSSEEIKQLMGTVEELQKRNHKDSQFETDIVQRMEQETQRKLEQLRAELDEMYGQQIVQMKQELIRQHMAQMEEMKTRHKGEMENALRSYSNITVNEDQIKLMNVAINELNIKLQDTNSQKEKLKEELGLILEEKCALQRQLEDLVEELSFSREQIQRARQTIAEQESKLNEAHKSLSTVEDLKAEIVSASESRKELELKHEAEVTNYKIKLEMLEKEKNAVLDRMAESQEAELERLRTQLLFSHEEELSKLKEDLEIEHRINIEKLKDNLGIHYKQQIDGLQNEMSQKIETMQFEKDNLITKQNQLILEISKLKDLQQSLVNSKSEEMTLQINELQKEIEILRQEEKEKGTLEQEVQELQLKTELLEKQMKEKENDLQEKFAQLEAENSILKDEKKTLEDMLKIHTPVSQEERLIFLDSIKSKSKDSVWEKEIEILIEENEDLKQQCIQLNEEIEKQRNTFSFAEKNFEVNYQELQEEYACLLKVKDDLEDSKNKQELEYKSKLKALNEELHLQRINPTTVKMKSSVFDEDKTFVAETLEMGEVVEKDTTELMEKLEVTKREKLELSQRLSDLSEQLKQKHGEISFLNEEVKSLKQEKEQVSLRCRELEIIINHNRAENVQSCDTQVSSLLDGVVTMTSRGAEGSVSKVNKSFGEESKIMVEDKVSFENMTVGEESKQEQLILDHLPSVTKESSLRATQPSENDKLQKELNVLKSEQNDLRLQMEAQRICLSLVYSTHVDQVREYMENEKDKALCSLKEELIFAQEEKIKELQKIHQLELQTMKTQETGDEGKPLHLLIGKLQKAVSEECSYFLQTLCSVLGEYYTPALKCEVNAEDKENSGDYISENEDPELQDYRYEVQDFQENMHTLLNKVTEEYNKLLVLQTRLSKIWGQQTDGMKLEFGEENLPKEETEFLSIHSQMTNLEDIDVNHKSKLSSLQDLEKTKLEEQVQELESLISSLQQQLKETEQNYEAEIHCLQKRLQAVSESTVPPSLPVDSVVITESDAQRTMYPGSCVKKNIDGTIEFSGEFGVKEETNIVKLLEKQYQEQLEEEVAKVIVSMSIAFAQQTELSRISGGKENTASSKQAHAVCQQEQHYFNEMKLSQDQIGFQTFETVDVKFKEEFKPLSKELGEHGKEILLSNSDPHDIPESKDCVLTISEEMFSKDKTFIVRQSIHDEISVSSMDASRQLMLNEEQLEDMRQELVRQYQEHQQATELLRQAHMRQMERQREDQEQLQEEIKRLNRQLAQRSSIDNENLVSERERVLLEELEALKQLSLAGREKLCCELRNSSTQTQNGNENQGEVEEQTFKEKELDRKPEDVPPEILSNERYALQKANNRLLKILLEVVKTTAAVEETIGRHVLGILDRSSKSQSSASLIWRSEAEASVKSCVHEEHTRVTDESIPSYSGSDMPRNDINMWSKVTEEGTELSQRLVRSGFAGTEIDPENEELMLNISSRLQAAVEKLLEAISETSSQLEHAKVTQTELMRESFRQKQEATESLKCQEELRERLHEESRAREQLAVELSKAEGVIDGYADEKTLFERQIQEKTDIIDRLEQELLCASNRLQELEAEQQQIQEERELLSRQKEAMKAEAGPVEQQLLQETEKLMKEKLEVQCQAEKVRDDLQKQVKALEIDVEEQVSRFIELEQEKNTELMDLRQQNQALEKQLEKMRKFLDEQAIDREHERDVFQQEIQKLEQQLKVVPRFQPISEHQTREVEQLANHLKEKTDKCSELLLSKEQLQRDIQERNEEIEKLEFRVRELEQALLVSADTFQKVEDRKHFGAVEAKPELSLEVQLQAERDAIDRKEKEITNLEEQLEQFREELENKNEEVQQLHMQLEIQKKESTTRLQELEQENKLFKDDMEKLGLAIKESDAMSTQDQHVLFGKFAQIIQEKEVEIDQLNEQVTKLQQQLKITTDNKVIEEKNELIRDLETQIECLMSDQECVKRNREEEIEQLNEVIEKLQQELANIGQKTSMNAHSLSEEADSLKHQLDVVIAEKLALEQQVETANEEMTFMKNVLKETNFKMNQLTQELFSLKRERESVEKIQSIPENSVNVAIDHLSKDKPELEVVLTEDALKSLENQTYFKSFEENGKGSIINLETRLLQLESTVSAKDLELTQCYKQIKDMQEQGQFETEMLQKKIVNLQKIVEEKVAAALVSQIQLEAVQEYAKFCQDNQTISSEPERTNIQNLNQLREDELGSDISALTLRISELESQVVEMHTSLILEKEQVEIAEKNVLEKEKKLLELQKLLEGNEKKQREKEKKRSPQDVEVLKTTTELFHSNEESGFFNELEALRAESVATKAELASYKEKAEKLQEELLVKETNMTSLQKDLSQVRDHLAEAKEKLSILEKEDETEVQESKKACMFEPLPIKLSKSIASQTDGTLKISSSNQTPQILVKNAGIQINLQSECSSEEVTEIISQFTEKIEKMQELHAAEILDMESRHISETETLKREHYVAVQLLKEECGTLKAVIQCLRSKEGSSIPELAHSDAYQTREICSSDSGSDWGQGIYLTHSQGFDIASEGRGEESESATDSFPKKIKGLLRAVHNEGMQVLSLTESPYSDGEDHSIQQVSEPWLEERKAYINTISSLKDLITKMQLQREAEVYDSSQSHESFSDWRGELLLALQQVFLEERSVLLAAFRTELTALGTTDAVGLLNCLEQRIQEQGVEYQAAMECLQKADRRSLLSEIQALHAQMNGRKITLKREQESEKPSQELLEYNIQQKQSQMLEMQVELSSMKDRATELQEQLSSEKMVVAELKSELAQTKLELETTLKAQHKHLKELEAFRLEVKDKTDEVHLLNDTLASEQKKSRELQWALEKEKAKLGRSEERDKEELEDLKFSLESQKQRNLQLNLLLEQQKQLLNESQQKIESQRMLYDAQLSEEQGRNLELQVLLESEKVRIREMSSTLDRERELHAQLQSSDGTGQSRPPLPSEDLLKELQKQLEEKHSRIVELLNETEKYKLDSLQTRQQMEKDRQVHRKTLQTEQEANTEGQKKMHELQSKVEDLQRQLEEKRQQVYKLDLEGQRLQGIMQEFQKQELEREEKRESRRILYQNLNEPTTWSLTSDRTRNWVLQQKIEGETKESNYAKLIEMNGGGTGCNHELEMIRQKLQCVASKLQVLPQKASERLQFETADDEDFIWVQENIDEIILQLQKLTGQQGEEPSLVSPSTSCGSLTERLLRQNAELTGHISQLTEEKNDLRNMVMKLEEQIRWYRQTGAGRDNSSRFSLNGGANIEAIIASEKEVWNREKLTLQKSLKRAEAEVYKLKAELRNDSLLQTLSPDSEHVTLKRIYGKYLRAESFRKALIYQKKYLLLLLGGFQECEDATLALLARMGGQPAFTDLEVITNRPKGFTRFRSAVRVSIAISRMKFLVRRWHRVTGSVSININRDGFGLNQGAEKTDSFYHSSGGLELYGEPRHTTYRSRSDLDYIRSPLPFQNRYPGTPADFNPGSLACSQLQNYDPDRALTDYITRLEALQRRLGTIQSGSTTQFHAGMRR
# UniProt Q9NZ32, whole entry, looked up: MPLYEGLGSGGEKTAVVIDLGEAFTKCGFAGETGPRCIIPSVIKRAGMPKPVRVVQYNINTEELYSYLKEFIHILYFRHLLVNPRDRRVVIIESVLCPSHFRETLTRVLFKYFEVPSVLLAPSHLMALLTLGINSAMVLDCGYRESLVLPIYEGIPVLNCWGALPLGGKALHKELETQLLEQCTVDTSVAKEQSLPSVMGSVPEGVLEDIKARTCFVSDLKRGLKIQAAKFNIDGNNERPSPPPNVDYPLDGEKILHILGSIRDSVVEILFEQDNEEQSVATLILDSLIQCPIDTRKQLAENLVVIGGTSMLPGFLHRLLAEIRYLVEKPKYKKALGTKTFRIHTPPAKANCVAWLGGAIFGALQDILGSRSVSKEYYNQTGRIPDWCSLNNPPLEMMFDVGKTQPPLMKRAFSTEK
# UniProt P30520: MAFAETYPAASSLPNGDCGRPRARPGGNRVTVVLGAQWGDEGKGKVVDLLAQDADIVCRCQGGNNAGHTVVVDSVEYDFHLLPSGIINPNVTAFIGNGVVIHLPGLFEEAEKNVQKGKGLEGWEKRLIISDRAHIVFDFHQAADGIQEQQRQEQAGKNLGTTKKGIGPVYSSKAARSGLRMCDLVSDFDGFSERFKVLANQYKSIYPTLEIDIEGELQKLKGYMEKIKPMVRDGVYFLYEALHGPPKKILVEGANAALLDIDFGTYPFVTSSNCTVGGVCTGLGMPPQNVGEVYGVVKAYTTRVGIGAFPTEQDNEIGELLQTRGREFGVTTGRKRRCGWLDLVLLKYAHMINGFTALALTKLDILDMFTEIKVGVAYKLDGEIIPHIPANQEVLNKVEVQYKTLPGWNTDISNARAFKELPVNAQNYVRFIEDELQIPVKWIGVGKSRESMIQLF
# UniProt Q96EY9: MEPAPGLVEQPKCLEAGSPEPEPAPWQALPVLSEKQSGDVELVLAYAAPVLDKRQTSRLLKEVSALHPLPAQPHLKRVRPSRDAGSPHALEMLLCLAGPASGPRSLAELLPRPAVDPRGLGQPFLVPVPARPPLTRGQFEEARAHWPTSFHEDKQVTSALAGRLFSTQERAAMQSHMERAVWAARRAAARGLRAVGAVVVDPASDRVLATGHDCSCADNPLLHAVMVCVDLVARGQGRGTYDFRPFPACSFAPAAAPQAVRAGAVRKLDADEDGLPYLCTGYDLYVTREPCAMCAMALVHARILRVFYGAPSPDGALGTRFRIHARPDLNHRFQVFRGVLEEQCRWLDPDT
# Key:
# Experiment in all cases: log2 fold change, soluble protein after heating vs DMSO (PISA); higher = thermal stabilisation; K562 lysate, 10 uM; active = over 0.2 and 3.5 SD of the protein, either way, in both replicates (recomputed)
# lapatinib = compound: CS(=O)(=O)CCNCc1ccc(-c2ccc3ncnc(Nc4ccc(OCc5cccc(F)c5)c(Cl)c4)c3c2)o1 [lapatinib]
# How it was run: (§1)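 K562 pellets were dounce-homogenised in PBS pH 7.4 with 1 mM MgCl2, and the crude extract at 1 mg/mL protein was treated with 10 μM compound for 30 min. Aliquots were heated for 3 min across 48°C-58°C, pooled, and brought to 0.5% NP-40 at 4°C; soluble protein was the supernatant after 21,000xg for 90 min. Soluble protein was quantified by TMTpro 16plex LC-MS/MS with channel sums equalised, and reported as log2 fold change in thermal stability against DMSO controls, with values from duplicates.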
# pictilisib = compound: CS(=O)(=O)N1CCN(Cc2cc3nc(-c4cccc5[nH]ncc45)nc(N4CCOCC4)c3s2)CC1 [pictilisib]
# How it was run: as §1
# crizotinib = compound: C[C@@H](Oc1cc(-c2cnn(C3CCNCC3)c2)cnc1N)c1c(Cl)ccc(F)c1Cl [crizotinib]
# How it was run: as §1
# [1] = compound: C[C@H](C1=CC=C(C=C1)C(=O)NC2=C3C=CNC3=NC=C2)N
# How it was run: as §1
# duvelisib = compound: C[C@H](Nc1ncnc2nc[nH]c12)c1cc2cccc(Cl)c2c(=O)n1-c1ccccc1 [duvelisib]
# How it was run: as §1
# gandotinib = compound: Cc1cc(Nc2cc(CN3CCOCC3)c3nc(C)c(Cc4ccc(Cl)cc4F)n3n2)n[nH]1 [gandotinib]
# How it was run: as §1
# tozasertib = compound: Cc1cc(Nc2cc(N3CCN(C)CC3)nc(Sc3ccc(NC(=O)C4CC4)cc3)n2)n[nH]1 [tozasertib]
# How it was run: as §1
# doramapimod = compound: Cc1ccc(-n2nc(C(C)(C)C)cc2NC(=O)Nc2ccc(OCCN3CCOCC3)c3ccccc23)cc1 [doramapimod]
# How it was run: as §1
# bafetinib = compound: Cc1ccc(NC(=O)c2ccc(CN3CC[C@H](N(C)C)C3)c(C(F)(F)F)c2)cc1Nc1nccc(-c2cncnc2)n1 [bafetinib]
# How it was run: as §1
# [2] = compound: Cc1cccc(CC(=O)N2CCc3c2ccc(-c2cn(C)c4ncnc(N)c24)c3F)n1
# How it was run: as §1
# nilotinib = compound: Cc1cn(-c2cc(NC(=O)c3ccc(C)c(Nc4nccc(-c5cccnc5)n4)c3)cc(C(F)(F)F)c2)cn1 [nilotinib]
# How it was run: as §1
# [3] = compound: Cc1nc(Nc2n[nH]c3c2CN(C(=O)N[C@H](CN(C)C)c2ccccc2)C3(C)C)c2sccc2n1
# How it was run: as §1
# dasatinib = compound: Cc1nc(Nc2ncc(C(=O)Nc3c(C)cccc3Cl)s2)cc(N2CCN(CCO)CC2)n1 [dasatinib]
# How it was run: as §1
# [4] = compound: Cc1ncc(-c2ccnc(Nc3ccc(S(C)(=O)=O)cc3)n2)n1C(C)C
# How it was run: as §1
# [5] = compound: Cn1cc(-c2ccc3c(c2)CCN3C(=O)Cc2cccc(C(F)(F)F)c2)c2c(N)ncnc21
# How it was run: as §1
# quisinostat = compound: Cn1cc(CNCC2CCN(c3ncc(C(=O)NO)cn3)CC2)c2ccccc21 [quisinostat]
# How it was run: as §1
# tipifarnib = compound: Cn1cncc1[C@@](N)(c1ccc(Cl)cc1)c1ccc2c(c1)c(-c1cccc(Cl)c1)cc(=O)n2C [tipifarnib]
# How it was run: as §1
# [6] = compound: NC(=O)Nc1cc(-c2cccc(F)c2)sc1C(=O)N[C@H]1CCCNC1
# How it was run: as §1
# [7] = compound: NC(=O)c1cnc(N[C@@H]2CCCC[C@@H]2N)nc1Nc1cccc(-n2nccn2)c1
# How it was run: as §1
# [8] = compound: NC1(c2ccc(-c3nc4ccn5c(=O)[nH]nc5c4cc3-c3ccccc3)cc2)CCC1
# How it was run: as §1
Target,log2 fold change (lapatinib),log2 fold change (pictilisib),log2 fold change (crizotinib),log2 fold change [1],log2 fold change (duvelisib),log2 fold change (gandotinib),log2 fold change (tozasertib),log2 fold change (doramapimod),log2 fold change (bafetinib),log2 fold change [2],log2 fold change (nilotinib),log2 fold change [3],log2 fold change (dasatinib),log2 fold change [4],log2 fold change [5],log2 fold change (quisinostat),log2 fold change (tipifarnib),log2 fold change [6],log2 fold change [7],log2 fold change [8]
AGTRAP (UniProt Q6RW13),inactive: 0.003,inactive: 0.043,inactive: -0.025,inactive: -0.215,inactive: -0.028,inactive: 0.127,inactive: -0.056,inactive: -0.003,inactive: -0.041,inactive: 0.215,inactive: -0.016,inactive: -0.02,inactive: -0.019,inactive: 0.075,inactive: 0.049,inactive: -0.071,inactive: -0.05,inactive: 0.038,inactive: -0.046,inactive: -0.017
ACTL6A (UniProt O96019),inactive: -0.008,inactive: -0.034,inactive: -0.037,inactive: -0.037,inactive: -0.006,inactive: 0.025,inactive: 0.015,inactive: 0.005,inactive: 0,inactive: 0.016,inactive: 0.001,inactive: -0.011,inactive: -0.026,inactive: 0.029,inactive: -0.006,inactive: -0.028,inactive: 0.017,inactive: 0.008,inactive: 0.007,inactive: 0.009
AGO2 (UniProt Q9UKV8),inactive: 0.006,inactive: -0.036,inactive: 0.042,inactive: 0.034,inactive: 0.011,inactive: -0.037,inactive: -0.029,inactive: -0.044,inactive: 0.009,inactive: -0.074,inactive: -0.084,inactive: 0,inactive: -0.004,inactive: 0.006,inactive: 0.001,inactive: -0.006,inactive: -0.001,inactive: 0.016,inactive: -0.004,inactive: 0.006
AIFM2 (UniProt Q9BRQ8),inactive: 0.132,inactive: -0.024,inactive: 0.06,inactive: -0.143,inactive: 0.004,active: 0.507,inactive: -0.014,inactive: 0.307,inactive: 0.086,inactive: 0.089,inactive: 0.057,inactive: -0.006,inactive: -0.072,inactive: -0.03,inactive: 0.024,inactive: -0.105,active: 0.411,inactive: -0.028,inactive: -0.054,inactive: 0
ADI1 (UniProt Q9BV57),inactive: 0.014,inactive: 0.043,inactive: -0.067,inactive: -0.07,inactive: -0.005,inactive: 0.078,inactive: 0.024,inactive: 0.038,inactive: -0.034,inactive: 0.086,inactive: -0.003,inactive: -0.022,inactive: -0.017,inactive: -0.021,inactive: 0.03,inactive: -0.074,inactive: -0.017,inactive: 0.003,inactive: -0.027,inactive: -0.012
AFF1 isoform 2 (UniProt P51825),inactive: -0.055,inactive: -0.063,inactive: 0.005,active: -0.396,inactive: 0.067,inactive: 0.341,inactive: 0.066,inactive: 0.064,inactive: -0.04,active: 0.696,inactive: -0.069,inactive: 0.022,inactive: 0.059,inactive: 0.069,inactive: -0.043,inactive: -0.01,inactive: 0.028,inactive: -0.005,inactive: 0.194,inactive: 0.008
ACSF3 (UniProt Q4G176),inactive: 0.009,inactive: -0.075,inactive: -0.035,inactive: 0.035,inactive: 0.04,inactive: 0.057,inactive: 0.019,inactive: -0.006,inactive: 0.03,inactive: -0.03,inactive: -0.017,inactive: 0.025,inactive: 0.005,inactive: 0.007,inactive: 0.033,inactive: -0.006,inactive: -0.001,inactive: -0.011,inactive: 0.034,inactive: -0.062
AIF1L (UniProt Q9BQI0),inactive: 0.047,inactive: 0.046,inactive: 0.039,inactive: 0.069,inactive: -0.075,inactive: -0.171,inactive: -0.105,inactive: -0.037,inactive: -0.122,inactive: 0.101,inactive: -0.263,inactive: -0.176,inactive: 0.118,inactive: 0.142,inactive: -0.058,inactive: -0.075,inactive: 0.123,inactive: -0.112,inactive: -0.012,inactive: 0.016
AKAP9 (UniProt Q99996),inactive: -0.127,inactive: -0.057,inactive: -0.009,inactive: 0.028,inactive: -0.016,inactive: -0.054,inactive: -0.005,inactive: 0.021,inactive: -0.027,inactive: 0.106,inactive: 0.011,inactive: -0.039,inactive: -0.038,inactive: 0.026,inactive: -0.02,inactive: -0.007,inactive: -0.031,inactive: -0.016,inactive: 0,inactive: 0.006
ACTR10 (UniProt Q9NZ32),inactive: 0.035,inactive: -0.018,inactive: -0.057,inactive: -0.001,inactive: 0.004,inactive: 0.02,inactive: 0.012,inactive: 0.062,inactive: 0.034,inactive: 0.039,inactive: -0.02,inactive: -0.005,inactive: 0.057,inactive: 0.001,inactive: -0.016,inactive: 0.043,inactive: 0.019,inactive: -0.082,inactive: 0.002,inactive: 0.006
AGRN (UniProt O00468),inactive: -0.048,inactive: 0.022,inactive: -0.051,inactive: -0.092,inactive: -0.073,inactive: 0.067,inactive: -0.007,inactive: 0.019,inactive: 0.066,inactive: 0.036,inactive: 0.236,inactive: -0.05,inactive: 0.053,inactive: -0.048,inactive: 0.107,inactive: 0.052,inactive: 0.062,inactive: -0.048,inactive: 0.115,inactive: 0.071
ADSS2 (UniProt P30520),inactive: -0.018,inactive: -0.033,inactive: -0.012,inactive: -0.076,inactive: 0.045,inactive: 0.038,inactive: -0.006,inactive: 0.018,inactive: -0.029,inactive: 0.014,inactive: 0.017,inactive: 0,inactive: 0.041,inactive: 0.023,inactive: -0.021,inactive: -0.021,inactive: -0.01,inactive: -0.016,inactive: -0.005,inactive: -0.013
ADAT3 (UniProt Q96EY9),inactive: -0.058,inactive: -0.018,inactive: 0.002,inactive: 0.044,inactive: 0.03,inactive: 0.004,inactive: 0.087,inactive: -0.027,inactive: -0.043,inactive: -0.039,inactive: -0.009,inactive: -0.006,inactive: 0.024,inactive: -0.001,inactive: 0.003,inactive: 0.03,inactive: 0.004,inactive: 0.007,inactive: 0.006,inactive: 0.098
ADSL (UniProt P30566),inactive: 0.006,inactive: 0,inactive: 0.054,inactive: 0.073,inactive: 0.007,inactive: -0.081,inactive: -0.026,inactive: -0.011,inactive: 0.031,inactive: -0.1,inactive: -0.01,inactive: -0.007,inactive: 0.005,inactive: 0.013,inactive: -0.029,inactive: 0.06,inactive: 0.003,inactive: -0.019,inactive: -0.006,inactive: 0.008
AKAP11 (UniProt Q9UKA4),inactive: 0.021,inactive: -0.08,inactive: 0.025,inactive: -0.02,inactive: 0.015,inactive: -0.176,inactive: 0.061,inactive: -0.036,inactive: -0.084,inactive: -0.005,inactive: -0.001,inactive: -0.06,inactive: -0.074,inactive: 0.188,inactive: 0.092,inactive: 0.012,inactive: 0.022,inactive: 0.008,inactive: 0.014,inactive: -0.05
AGO1 (UniProt Q9UL18),inactive: 0.009,inactive: -0.056,inactive: -0.008,inactive: 0.107,inactive: 0.029,inactive: -0.051,inactive: -0.099,inactive: 0.008,inactive: 0.01,inactive: -0.084,inactive: 0.037,inactive: 0.051,inactive: 0.037,inactive: -0.024,inactive: 0.002,inactive: -0.038,inactive: -0.004,inactive: 0.04,inactive: -0.015,inactive: -0.025

# An excerpt of these results, bar-delimited.
Target | log2 fold change (lapatinib) | log2 fold change (pictilisib) | log2 fold change (crizotinib) | log2 fold change [1] | log2 fold change (duvelisib) | log2 fold change (gandotinib) | log2 fold change (tozasertib) | log2 fold change (doramapimod) | log2 fold change (bafetinib) | log2 fold change [2] | log2 fold change (nilotinib) | log2 fold change [3] | log2 fold change (dasatinib) | log2 fold change [4] | log2 fold change [5] | log2 fold change (quisinostat) | log2 fold change (tipifarnib) | log2 fold change [6] | log2 fold change [7] | log2 fold change [8]
AFF1 isoform 2 (UniProt P51825) | inactive: -0.055 | inactive: -0.063 | inactive: 0.005 | active: -0.396 | inactive: 0.067 | inactive: 0.341 | inactive: 0.066 | inactive: 0.064 | inactive: -0.04 | active: 0.696 | inactive: -0.069 | inactive: 0.022 | inactive: 0.059 | inactive: 0.069 | inactive: -0.043 | inactive: -0.01 | inactive: 0.028 | inactive: -0.005 | inactive: 0.194 | inactive: 0.008
ACSF3 (UniProt Q4G176) | inactive: 0.009 | inactive: -0.075 | inactive: -0.035 | inactive: 0.035 | inactive: 0.04 | inactive: 0.057 | inactive: 0.019 | inactive: -0.006 | inactive: 0.03 | inactive: -0.03 | inactive: -0.017 | inactive: 0.025 | inactive: 0.005 | inactive: 0.007 | inactive: 0.033 | inactive: -0.006 | inactive: -0.001 | inactive: -0.011 | inactive: 0.034 | inactive: -0.062

# Source: the supplement of paper PMC10849652
